According to PubChem BioAssay AID504444 (National Center for Advancing Translational Sciences (NCATS), 2011):
The campaign covered roughly 360,000 compounds. About 7,500 (2.1%) were called active. This list was built around the results that the source calls inconclusive (neither active nor inactive); the mix of calls is not that of the screen. Calls come from the whole dose curve; as a rule, active = well fitted inhibition curve with a large enough effect; inconclusive = small, poorly fitted or top-dose-only effect, or effect the other way; inactive = flat fitted curve, though single readings scatter. Potencies of inconclusive entries are doubtful fits and often do not repeat.

Experiment: Nrf2 qHTS screen for inhibitors; note: nearly all actives have a fitted effect of over 60% in size
Details: A549 ARE-Fluc reporter, luciferase luminescence, 18-24 h; activity change, negative = inhibition: at 46 µM (top of the series)
How it was run: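 Concentration-response testing used A549 ARE_Fluc cells at 5000 cells/well. Following an 18-24 h compound incubation, viability was read by fluorescence (Ex 405/Em 525) and luciferase output by luminescence.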
% is set by controls: 0 for no effect and ±100 for the full control effect; potency is the fitted concentration of half-maximal effect.

SMILES | Potency | activity change, negative = inhibition
CCOc1ncccc1C(=O)N1CCN(c2cc(Cl)ccc2C)CC1 | inconclusive: 9.2 µM [activator, partial curve] | –
Cc1cc(S(=O)(=O)Nc2cccnc2)c(Cl)cc1Cl | inconclusive: 18.4 µM [falling, single point] | –
COc1ccc2c(c1)CCc1c(C(=O)Nc3c(C)nn(Cc4ccccc4)c3C)noc1-2 | active: 20.6 µM | –
COc1ccc(/C=C/c2c(-c3ccc(OC)cc3)oc3ccccc23)cc1 | – | inactive: 21.5%
O=C(CCc1ccccc1)NNC(=S)NC(=O)c1ccc(Cl)cc1 | active: 20.6 µM | –
COc1ccc2oc(C(=O)Nc3nc(C)cs3)c(C)c2c1 | inconclusive: 0.731 µM [activator, full curve, poor fit] | –
COc1ccccc1C(=O)OCC(=O)NC1CCCC1 | inconclusive: 7.31 µM [activator, partial curve, poor fit] | –
CCOCCCNS(=O)(=O)c1cc2[nH]c3c(c2cc1C)C(=O)CC(C)(C)C3 | inconclusive: 20.6 µM [falling, partial curve, poor fit] | –
CCCNC(=O)CN1C(=O)CSc2ccc(S(=O)(=O)N3CCC(C)CC3)cc21 | – | inactive: 0.205%
Cc1ccc(NC(=O)N2CCC(C(=O)c3ccc(F)cc3)CC2)cc1 | inconclusive: 18.4 µM [falling, single point] | –
Cc1ccc(Nc2c(C(C)C)c(C)c(C#N)c3nc4ccccc4n23)cc1 | inconclusive: 18.4 µM [falling, single point] | –
Cc1ccc(S(=O)(=O)CCSc2cccc(C(=O)Nc3ccccc3C(=O)O)c2)cc1 | inconclusive: 25.9 µM [activator, single point] | –
Cc1ccc(NC(=O)N2CCN(Cc3ccc4c(c3)OCO4)CC2)cc1 | inconclusive: 20.6 µM [falling, partial curve, poor fit] | –
Cc1cc(Br)c2c(c1)/C(=C/C(=O)c1cccs1)C(=O)N2 | – | inactive: -7.06%
COc1ccc(S(=O)(=O)Nc2ccc3oc(C)c(C(C)=O)c3c2)cc1 | inconclusive: 29.1 µM [falling, single point] | –
CC(C)CNS(=O)(=O)c1ccc(CCC(=O)NCc2cccnc2)cc1 | inconclusive: 10.3 µM [falling, partial curve, poor fit] | –
O=C(Oc1ccc(/C=N/Nc2ccccc2)cc1)c1ccccc1 | inconclusive: 20.6 µM [falling, single point] | –
CC(C)[C@H](NC(=O)c1ccccc1Cl)C(=O)OCC(=O)N1CCCCC1 | inconclusive: 16.4 µM [activator, single point] | –
Cc1cc(C)cc(N2CCCn3c2nc2c3c(=O)n(CC(=O)OCc3ccccc3)c(=O)n2C)c1 | inconclusive: 16.4 µM [falling, partial curve, poor fit] | –
Nc1cc(-c2ccc(Br)cc2)[nH]n1 | – | inactive: 14.3%
S=C(Nc1ccccc1Cl)N(Cc1cccnc1)Cc1ccco1 | inconclusive: 16.4 µM [falling, single point] | –
Cc1ccc(NC(=O)C(=O)C2C(=O)Nc3ccccc32)cc1 (stereo unspecified) | inconclusive: 13 µM [activator, partial curve, poor fit] | –

SMILES | Potency | activity change, negative = inhibition
Cc1nc2cc(-c3ccccc3)nn2c(N)c1-c1ccccc1 | inconclusive: 5.8 µM [activator, full curve] | –
O=[N+]([O-])c1cccc(/C=C2\CCC(/C=N/Nc3ccc4ccccc4n3)=C2N2CCOCC2)c1 | – | inactive: 8.99%
Cc1ccc2[nH]c(C)c(CCNC(=O)C3CCCCC3C(=O)OCC(F)(F)F)c2c1 (stereo unspecified) | inconclusive: 7.31 µM [falling, partial curve, poor fit] | –
Cc1cc2ccccc2cc1C(=O)c1ccccc1 | inconclusive: 29.1 µM [activator, single point] | –
COC(=O)c1cc2c(ccn2-c2ccc(F)cc2)n1CC(=O)N1CCN(C(=O)c2ccco2)CC1 | – | inactive: 9.23%
COc1cccc(-c2nnc3sc(-c4ccccc4)nn23)c1 | – | inactive: -20.7%
O=C(CN1C(=O)CSc2ccc(S(=O)(=O)N3CCCC3)cc21)Nc1cccc(Cl)c1 | inconclusive: 25.9 µM [falling, single point] | –
O=C(COC(=O)c1n[nH]c2ccccc12)Nc1ccccc1F | inconclusive: 23.1 µM [activator, partial curve] | –
CN1CCCN(C(=O)Cc2c(Cl)cccc2Cl)c2nc3ccccc3nc21 | inconclusive: 29.1 µM [falling, single point] | –
O=S(=O)(Cc1noc(-c2ccccc2Cl)n1)c1ccccn1 | inconclusive: 7.31 µM [activator, partial curve] | –
Cc1ccc(NS(=O)(=O)c2ccc3c(c2)NC(=O)CO3)cc1C | inconclusive: 16.4 µM [falling, partial curve, poor fit] | –
COc1ccc2c(Sc3ccc(C)cc3)c(C(=O)NC(C)C)[nH]c2c1 | active: 23.1 µM | –
Cc1cc(C)nc(SCC(=O)N2CCc3ccccc32)n1 | inconclusive: 9.2 µM [activator, partial curve, poor fit] | –
CCc1noc(C)c1C(=O)Nc1nc2ccc(S(C)(=O)=O)cc2s1 | inconclusive: 18.4 µM [activator, single point] | –
O=c1cnn([C@@H]2O[C@H](CO)[C@@H](O)[C@H]2O)c(=O)[nH]1 | inconclusive: 0.231 µM [activator, full curve, poor fit] | –
COC(=O)C1=C(O)C(C(=O)OC)C(c2ccc(C)cc2)C(C#N)(C#N)C1c1ccc(C)cc1 (stereo unspecified) | active: 2.91 µM | –
S=C(Nc1ccc(Nc2ccccc2)cc1)Nc1ccccn1 | active: 20.6 µM | –
COCCCNC(=O)c1nn(-c2ccc(C)cc2)nc1CO | – | inactive: -12.9%
CCCCCn1c(N2CCN(c3cccc(Cl)c3)CC2)nc2c1c(=O)[nH]c(=O)n2C | inconclusive: 16.4 µM [falling, single point] | –
COCCCNC(=O)c1ccc(Cn2c(=O)c3ccccc3n(Cc3c(C)cc(C)cc3C)c2=O)cc1 | – | inactive: 7.23%
c1ccc2sc(N3CCOCC3)nc2c1 | – | inactive: 2.83%
Nc1c(C(=O)Nc2ccccc2F)sc2nc(-c3cccnc3)ccc12 | inconclusive: 2.06 µM [falling, partial curve, poor fit] | –

SMILES | Potency | activity change, negative = inhibition
CC(C)c1ccc(NC(=O)COC(=O)c2nn(C)c(=O)c3ccccc23)cc1 | inconclusive: 5.8 µM [activator, full curve, poor fit] | –
CCCCN(CC)C(=O)C1CCCN(c2ncnc3onc(C)c23)C1 (stereo unspecified) | inconclusive: 10.3 µM [falling, partial curve, poor fit] | –
CC1CCN(C(=O)COC(=O)c2cc(Cl)c3c(c2)OCO3)CC1 | inconclusive: 14.6 µM [activator, partial curve] | –
CCCCCC(=O)Nc1cc(S(=O)(=O)N2CCCCC2)ccc1N1CCCCC1 | inconclusive: 29.1 µM [falling, single point] | –
Clc1ccc(OCCCCCN2CCCC2)c(Br)c1 | inconclusive: 13 µM [activator, partial curve] | –
O=C(COC(=O)c1cc(S(=O)(=O)N2CCOCC2)c(Cl)cc1Cl)NCc1ccco1 | – | inactive: 2.47%
Cc1cc(CNC(=O)COc2ccccc2)c2ccccc2n1 | inconclusive: 7.31 µM [falling, partial curve] | –
CCCOc1ccc(CSc2nc3ccccc3[nH]2)cc1 | inconclusive: 32.6 µM [falling, single point] | –
COc1ccc(CCNC(=O)c2ccc(Cn3c(=O)c4ccccc4n(CC(=O)C(C)(C)C)c3=O)cc2)cc1OC | inconclusive: 4.61 µM [falling, partial curve, poor fit] | –
CC1CC(C)CN(C(=O)C2CCC(CNS(=O)(=O)c3ccccc3)CC2)C1 (stereo unspecified) | inconclusive: 20.6 µM [falling, partial curve] | –
O=C(NCCCN1CCCC1=O)c1ccc(S(=O)(=O)Nc2cccc(C(F)(F)F)c2)cc1 | inconclusive: 29.1 µM [falling, single point] | –
CCCC(=O)N1CCN(c2ccc(NC(=O)c3cc4ccccc4o3)cc2Cl)CC1 | active: 13 µM | –
COc1ccc(Cn2nnnc2C(c2ccccc2Cl)N2CCC(C(N)=O)CC2)cc1 (stereo unspecified) | inconclusive: 29.1 µM [activator, single point] | –
c1ccc2c(c1)CCN(c1nc3cc4c(cc3s1)OCCO4)C2 | inconclusive: 11.6 µM [falling, single point] | –
Cc1ccc(Cl)cc1N1CCN(S(=O)(=O)c2ccc3c(c2)NC(=O)C(C)C(=O)N3)CC1 (stereo unspecified) | inconclusive: 23.1 µM [falling, partial curve] | –
CC1CCCCN1CCCNC(=O)CN1C(=O)c2cccnc2Oc2ccccc21 (stereo unspecified) | inconclusive: 16.4 µM [activator, partial curve, poor fit] | –
Cc1ccccc1C(=O)O/N=C/c1c(N2CCOCC2)n(C)c2ccccc12 | inconclusive: 6.51 µM [falling, single point] | –
CCn1c(=S)sc2c(=O)n(CC(=O)Nc3ccccc3C(F)(F)F)c(C)nc21 | – | inactive: 17%
COc1cc2nc(SCc3ccc(Cl)cc3Cl)n(Cc3cccs3)c(=N)c2cc1OC | inconclusive: 29.1 µM [falling, single point] | –
CN(C)c1oc(/C=C/c2cccs2)nc1S(=O)(=O)c1ccccc1 | inconclusive: 20.6 µM [falling, partial curve, poor fit] | –
Cc1cccc(NC(=O)CCNS(=O)(=O)c2ccc3[nH]c(=O)oc3c2)c1 | inconclusive: 23.1 µM [activator, partial curve, poor fit] | –
Fc1ccc(NC(=S)NCCc2ccccc2)c(F)c1F | inconclusive: 29.1 µM [falling, single point] | –

A stretch from further up, as a working copy:
SMILES | Potency | activity change, negative = inhibition
O=C(COC(=O)c1cc(S(=O)(=O)N2CCOCC2)c(Cl)cc1Cl)NCc1ccco1 | – | inactive: 2.47%
Cc1cc(CNC(=O)COc2ccccc2)c2ccccc2n1 | inconclusive: 7.31 µM [falling, partial curve] | –

Quoted at random: 2 entries already listed
SMILES | Potency | activity change, negative = inhibition
Cc1cc(CNC(=O)COc2ccccc2)c2ccccc2n1 | inconclusive: 7.31 µM [falling, partial curve] | –
O=C(NCCCN1CCCC1=O)c1ccc(S(=O)(=O)Nc2cccc(C(F)(F)F)c2)cc1 | inconclusive: 29.1 µM [falling, single point] | –
